Two molecules from article PMC6528990 can be followed below.

Chains of the proteins cited; added tags and fusions are not shown.
UniProt P38936: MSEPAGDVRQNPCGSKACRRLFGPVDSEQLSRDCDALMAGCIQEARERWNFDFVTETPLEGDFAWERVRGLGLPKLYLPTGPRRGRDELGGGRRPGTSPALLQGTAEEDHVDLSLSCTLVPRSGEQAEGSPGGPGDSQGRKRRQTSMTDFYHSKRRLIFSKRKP
UniProt P17918: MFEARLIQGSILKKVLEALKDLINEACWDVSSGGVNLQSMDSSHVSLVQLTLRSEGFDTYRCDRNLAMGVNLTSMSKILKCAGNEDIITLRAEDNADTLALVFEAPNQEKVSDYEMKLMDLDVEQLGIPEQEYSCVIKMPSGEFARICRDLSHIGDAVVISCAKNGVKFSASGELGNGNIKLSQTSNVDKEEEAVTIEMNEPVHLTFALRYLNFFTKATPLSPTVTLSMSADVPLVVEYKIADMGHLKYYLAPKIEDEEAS

Results are given in words; binding and its absence hold for the method and conditions named. Binding seen in cells or lysates may run through a third protein. Some entries that bind do so weakly or less than the wild type.

The target in assay [1] is T1, p21 (mouse (endogenous in lung tumor tissue)) (UniProt P39689).
T1 sequence: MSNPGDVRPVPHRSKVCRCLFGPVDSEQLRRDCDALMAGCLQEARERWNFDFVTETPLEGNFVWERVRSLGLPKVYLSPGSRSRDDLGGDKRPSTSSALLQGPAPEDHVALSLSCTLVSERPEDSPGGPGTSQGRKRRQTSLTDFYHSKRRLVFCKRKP
In words: co-IP; lung tumor tissue lysates of WT or parkin KO mice; immunoprecipitated with anti-p21 antibody, protein A/G beads; blotted for parkin, PCNA or CDK2.

The target of assay [2] is p21 (human (endogenous in A549)) (UniProt P38936). Put plainly: co-IP; A549 cell lysates (EBC buffer); immunoprecipitated with polyclonal anti-p21 antibody, protein A/G beads; blotted for parkin, PCNA or CDK2; cells untreated, transfected with p21 plasmid vectors or with parkin siRNA.

For “proliferating cell nuclear antigen (from UniProt P17918 1-261)”, in assay [1], the binding result is “binds”.

B1: parkin (protein, UniProt Q9WVS6 1-464)
chain: MIVFVRFNSSYGFPVEVDSDTSILQLKEVVAKRQGVPADQLRVIFAGKELPNHLTVQNCDLEQQSIVHIVQRPRRRSHETNASGGDEPQSTSEGSIWESRSLTRVDLSSHTLPVDSVGLAVILDTDSKRDSEAARGPVKPTYNSFFIYCKGPCHKVQPGKLRVQCGTCKQATLTLAQGPSCWDDVLIPNRMSGECQSPDCPGTRAEFFFKCGAHPTSDKDTSVALNLITSNRRSIPCIACTDVRSPVLVFQCNHRHVICLDCFHLYCVTRLNDRQFVHDAQLGYSLPCVAGCPNSLIKELHHFRILGEEQYTRYQQYGAEECVLQMGGVLCPRPGCGAGLLPEQGQRKVTCEGGNGLGCGFVFCRDCKEAYHEGDCDSLLEPSGATSQAYRVDKRAAEQARWEEASKETIKKTTKPCPRCNVPIEKNGGCMHMKCPQPQCKLEWCWNCGCEWNRACMGDHWFDV
As to B1, the binding result in assay [2] was “binds”.
